Results are given in words; binding and its absence hold for the method and conditions named.

The assay deals with solubilized recombinant NDST1 (residues 79-882), bifunctional heparan sulfate N-deacetylase-N-sulfotransferase 1 (human) (UniProt P52848). Description: cryo-EM structure; NDST1-nAb complexes isolated by SEC, 0.4-0.6 mg/mL in 50 mM Tris-HCl pH 7.5 with 5 mM PAP and 15 mM MgCl2; NDST1 alone classified from the NDST1-nAb13 grid, on which a large proportion of complexes had dissociated; both purified.

B1: solubilized recombinant NDST1 (residues 79-882), bifunctional heparan sulfate N-deacetylase-N-sulfotransferase 1 (enzyme, UniProt P52848 79-882)
chain: SRTDPLVLVFVESLYSQLGQEVVAILESSRFKYRTEIAPGKGDMPTLTDKGRGRFALIIYENILKYVNLDAWNRELLDKYCVAYGVGIIGFFKANENSLLSAQLKGFPLFLHSNLGLKDCSINPKSPLLYVTRPSEVEKGVLPGEDWTVFQSNHSTYEPVLLAKTRSSESIPHLGADAGLHAALHATVVQDLGLHDGIQRVLFGNNLNFWLHKLVFVDAVAFLTGKRLSLPLDRYILVDIDDIFVGKEGTRMKVEDVKALFDTQNELRAHIPNFTFNLGYSGKFFHTGTNAEDAGDDLLLSYVKEFWWFPHMWSHMQPHLFHNQSVLAEQMALNKKFAVEHGIPTDMGYAVAPHHSGVYPVHVQLYEAWKQVWSIRVTSTEEYPHLKPARYRRGFIHNGIMVLPRQTCGLFTHTIFYNEYPGGSSELDKIINGGELFLTVLLNPISIFMTHLSNYGNDRLGLYTFKHLVRFLHSWTNLRLQTLPPVQLAQKYFQIFSEEKDPLWQDPCEDKRHKDIWSKEKTCDRFPKLLIIGPQKTGTTALYLFLGMHPDLSSNYPSSETFEEIQFFNGHNYHKGIDWYMEFFPIPSNTTSDFYFEKSANYFDSEVAPRRAAALLPKAKVLTILINPADRAYSWYQHQRAHDDPVALKYTFHEVITAGSDASSKLRALQNRCLVPGWYATHIERWLSAYHANQILVLDGKLLRTEPAKVMDMVQKFLGVTNTIDYHKTLAFDPKKGFWCQLLEGGKTKCLGKSKGRKYPEMDLDSRAFLKDYYRDHNIELSKLLYKMGQTLPTWLREDLQNTR
Take B1: the binding result is given as “no binding”.
